Measurements: article PMC7525442
These are yes or no findings as the source states them, for the method shown. Binding seen in cells or lysates may run through a third protein. Some binding calls cover weakened binding; strength is not graded here.

By UniProt entry, the sequences of proteins in these tests, tags left out.
UniProt P17931: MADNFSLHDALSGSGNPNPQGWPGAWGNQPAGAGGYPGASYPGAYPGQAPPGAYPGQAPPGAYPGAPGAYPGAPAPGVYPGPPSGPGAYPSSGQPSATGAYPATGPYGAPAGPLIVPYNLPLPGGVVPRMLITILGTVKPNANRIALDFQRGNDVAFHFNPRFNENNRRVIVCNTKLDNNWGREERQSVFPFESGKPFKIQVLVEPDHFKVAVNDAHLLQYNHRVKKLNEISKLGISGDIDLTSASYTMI

Target: galectin-3 (human (endogenous in PLC/PRF/5)) (UniProt P17931)
Assay: co-IP; PLC/PRF/5 cells incubated with or without 3 µg/ml M2BPGi for 12 h and lysed with 1% Triton-X; 300 µg lysate protein with galectin-3 antibody for 2 h at 4 °C, then protein G beads; 5 washes; western blot for M2BP; only the binder purified

binding: binds
B1: Mac-2-binding protein glycan isomer (Wisteria floribunda agglutinin-positive Mac-2-binding protein) (protein, UniProt Q08380 19-585)
chain: VNDGDMRLADGGATNQGRVEIFYRGQWGTVCDNLWDLTDASVVCRALGFENATQALGRAAFGQGSGPIMLDEVQCTGTEASLADCKSLGWLKSNCRHERDAGVVCTNETRSTHTLDLSRELSEALGQIFDSQRGCDLSISVNVQGEDALGFCGHTVILTANLEAQALWKEPGSNVTMSVDAECVPMVRDLLRYFYSRRIDITLSSVKCFHKLASAYGARQLQGYCASLFAILLPQDPSFQMPLDLYAYAVATGDALLEKLCLQFLAWNFEALTQAEAWPSVPTDLLQLLLPRSDLAVPSELALLKAVDTWSWGERASHEEVEGLVEKIRFPMMLPEELFELQFNLSLYWSHEALFQKKTLQALEFHTVPFQLLARYKGLNLTEDTYKPRIYTSPTWSAFVTDSSWSARKSQLVYQSRRGPLVKYSSDYFQAPSDYRYYPYQSFQTPQHPSFLFQDKRVSWSLVYLPTIQSCWNYGFSCSSDELPVLGLTKSGGSDRTIAYENKALMLCEGLFVADVTDFEGWKAAIPSALDTNSSKSTSSFPCPAGHFNGFRTVIRPFYLTNSSGVD
modifications: glycosylation at N-linked sites (85–97 kDa form); WFA-binding glycoform
